Article doi:10.1101/2021.12.08.471779
Substitutions are numbered along the chain they refer to. No constants are given. Whether binding was seen depends on the method and setting. Binding seen in cells or lysates may run through a third protein. Some results given as binding are weak or reduced against the parent protein; the word gives no strength.

Sequences of proteins named here, by UniProt entry; tags and fusion partners are left off. A change or cut given only in a name is not applied to a line headed by its entry.
UniProt P05825, whole entry, looked up, stated change not applied: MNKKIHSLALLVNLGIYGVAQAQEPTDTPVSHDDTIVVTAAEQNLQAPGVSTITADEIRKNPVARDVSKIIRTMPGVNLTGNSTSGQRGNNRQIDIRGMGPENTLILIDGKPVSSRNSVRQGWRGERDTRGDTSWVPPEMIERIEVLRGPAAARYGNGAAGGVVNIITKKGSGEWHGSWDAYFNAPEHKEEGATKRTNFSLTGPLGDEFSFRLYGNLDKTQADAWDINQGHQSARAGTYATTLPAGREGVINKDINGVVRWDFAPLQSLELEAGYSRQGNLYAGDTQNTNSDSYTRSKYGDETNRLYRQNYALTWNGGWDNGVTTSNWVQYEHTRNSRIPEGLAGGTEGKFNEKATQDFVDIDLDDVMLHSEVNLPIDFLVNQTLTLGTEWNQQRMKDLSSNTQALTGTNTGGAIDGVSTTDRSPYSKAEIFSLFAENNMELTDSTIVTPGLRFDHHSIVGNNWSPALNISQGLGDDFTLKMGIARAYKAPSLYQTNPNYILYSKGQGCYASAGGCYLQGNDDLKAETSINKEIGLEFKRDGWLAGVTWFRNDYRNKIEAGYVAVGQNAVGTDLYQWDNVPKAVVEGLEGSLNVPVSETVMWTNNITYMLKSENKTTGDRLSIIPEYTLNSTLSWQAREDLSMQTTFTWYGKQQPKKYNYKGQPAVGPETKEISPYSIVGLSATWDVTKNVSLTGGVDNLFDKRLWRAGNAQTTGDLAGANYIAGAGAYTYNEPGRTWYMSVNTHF
UniProt P02929, whole entry, looked up, stated change not applied: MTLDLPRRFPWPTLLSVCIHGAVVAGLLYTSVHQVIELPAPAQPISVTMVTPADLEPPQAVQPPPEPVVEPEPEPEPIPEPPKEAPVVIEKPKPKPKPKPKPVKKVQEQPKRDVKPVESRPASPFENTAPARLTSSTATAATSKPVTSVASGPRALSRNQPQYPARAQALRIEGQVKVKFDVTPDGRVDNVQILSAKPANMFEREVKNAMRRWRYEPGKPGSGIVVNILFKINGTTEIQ

What was measured:
Assay in all cases: cross-linking
[1] = target: T1, FepA I14C (Escherichia coli K-12) (UniProt P05825)
T1 sequence: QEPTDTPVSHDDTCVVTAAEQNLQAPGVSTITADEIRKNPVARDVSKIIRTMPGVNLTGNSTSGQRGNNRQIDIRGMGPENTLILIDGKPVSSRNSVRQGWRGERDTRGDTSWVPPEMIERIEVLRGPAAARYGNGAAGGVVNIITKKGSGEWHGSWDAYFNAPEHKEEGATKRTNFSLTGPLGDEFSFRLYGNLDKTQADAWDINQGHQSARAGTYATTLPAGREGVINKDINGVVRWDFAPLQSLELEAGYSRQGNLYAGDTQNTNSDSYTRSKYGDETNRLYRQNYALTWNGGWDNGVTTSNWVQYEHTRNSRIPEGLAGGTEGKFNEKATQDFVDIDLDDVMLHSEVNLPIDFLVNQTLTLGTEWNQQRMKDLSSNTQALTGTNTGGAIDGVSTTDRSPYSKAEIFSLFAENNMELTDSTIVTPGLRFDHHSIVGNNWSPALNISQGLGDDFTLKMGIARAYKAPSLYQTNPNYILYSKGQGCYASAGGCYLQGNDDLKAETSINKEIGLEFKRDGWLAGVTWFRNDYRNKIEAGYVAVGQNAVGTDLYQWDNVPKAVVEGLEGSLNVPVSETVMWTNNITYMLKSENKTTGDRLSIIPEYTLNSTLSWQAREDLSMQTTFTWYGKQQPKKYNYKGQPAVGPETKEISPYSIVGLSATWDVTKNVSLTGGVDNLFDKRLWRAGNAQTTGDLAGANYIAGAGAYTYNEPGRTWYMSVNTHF

[2] = target: T2, FepA V15C (Escherichia coli K-12) (UniProt P05825)
T2 sequence: T1 sequence with C14I, V15C

[3] = target: T3, FepA T13C (Escherichia coli K-12) (UniProt P05825)
T3 sequence: T1 sequence with T13C, C14I

Substance | binding [1] | binding [2] | binding [3]
TonB C18G A209C (from UniProt P02929 1-239) | no binding | no binding | no binding
TonB C18G H20A Q160C (from UniProt P02929 1-239) | binds | binds | binds
TonB C18G H20A N208C (from UniProt P02929 1-239) | no binding | no binding | no binding
TonB C18G H20A V206C (from UniProt P02929 1-239) | no binding | no binding | no binding
TonB C18G H20A R212C (from UniProt P02929 1-239) | no binding | no binding | no binding
TonB C18G H20A R204C (from UniProt P02929 1-239) | no binding | no binding | no binding
TonB C18G R204C (from UniProt P02929 1-239) | binds | binds | binds
TonB C18G H20A A209C (from UniProt P02929 1-239) | no binding | no binding | no binding
TonB C18G R212C (from UniProt P02929 1-239) | binds | binds | binds
TonB C18G N208C (from UniProt P02929 1-239) | binds | binds | binds
TonB C18G Q160C (from UniProt P02929 1-239) | binds | binds | binds
TonB C18G V206C (from UniProt P02929 1-239) | no binding | no binding | no binding
